The values below come from PMC9154761, “Development of Praziquantel sulphonamide derivatives as antischistosomal drugs” (Journal of Enzyme Inhibition and Medicinal Chemistry, 2022).

Amino acid sequences for entries named in this document (tags omitted).
UniProt A0A3S5H5R2, entry or part of it: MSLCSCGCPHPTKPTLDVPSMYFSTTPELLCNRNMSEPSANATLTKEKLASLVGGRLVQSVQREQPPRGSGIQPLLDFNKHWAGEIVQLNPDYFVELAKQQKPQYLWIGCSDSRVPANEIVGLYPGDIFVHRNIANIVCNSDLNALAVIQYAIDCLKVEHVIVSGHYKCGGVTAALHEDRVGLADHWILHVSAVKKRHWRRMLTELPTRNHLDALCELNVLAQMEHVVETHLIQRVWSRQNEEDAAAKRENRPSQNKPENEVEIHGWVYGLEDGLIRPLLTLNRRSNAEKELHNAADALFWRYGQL

This assay has as its target LdCA (Leishmania donovani, UniProt A0A3S5H5R2). Description: biochemical. The conditions noted are these: stopped flow CO2 hydrase assay; mean from three different assays. The procedure: An Applied Photophysics stopped-flow instrument was used to assay the CA catalysed CO2 hydration activity. […]. The uncatalyzed rates were determined in the same manner and subtracted from the total observed rates. Stock solutions of the inhibitor (0.1 mM) were prepared in distilled–deionized water and dilutions up to 0.01 nM were done thereafter with the assay buffer. Inhibitor and enzyme solutions were preincubated together for 15 min at room temperature prior to the assay, to allow for the formation of the E–I complex. The inhibition constants were obtained by non-linear least-squares methods using PRISM 3 and the Cheng-Prusoff equation as reported earlier and represent the mean from at least three different determinations. All CA isoforms were recombinant proteins obtained in house, as reported earlier[14]^,[26–29].

For `CC(=O)Nc1nnc(S(N)(=O)=O)s1` [AAZ, acetazolamide, reference compound], affinity was put at a Ki of 91.7 ± 5.8 nM.
